The target in this test is Flag-hCINAP (human coilin-interacting nuclear ATPase protein) (human) (UniProt Q9Y3D8). Kind of test: affinity purification with mass spectrometry; HEK293T with Flag-empty vector or Flag-hCINAP, with or without IR (6 Gy); lysate purified on anti-Flag M2 affinity beads.

The chains behind the UniProt entries cited, without tags or fusion partners.
UniProt Q9Y3D8: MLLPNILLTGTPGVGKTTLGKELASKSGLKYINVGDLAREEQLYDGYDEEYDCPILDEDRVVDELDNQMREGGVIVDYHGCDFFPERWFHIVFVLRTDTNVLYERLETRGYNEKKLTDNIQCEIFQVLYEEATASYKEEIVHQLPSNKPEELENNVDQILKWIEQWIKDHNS
UniProt P06748: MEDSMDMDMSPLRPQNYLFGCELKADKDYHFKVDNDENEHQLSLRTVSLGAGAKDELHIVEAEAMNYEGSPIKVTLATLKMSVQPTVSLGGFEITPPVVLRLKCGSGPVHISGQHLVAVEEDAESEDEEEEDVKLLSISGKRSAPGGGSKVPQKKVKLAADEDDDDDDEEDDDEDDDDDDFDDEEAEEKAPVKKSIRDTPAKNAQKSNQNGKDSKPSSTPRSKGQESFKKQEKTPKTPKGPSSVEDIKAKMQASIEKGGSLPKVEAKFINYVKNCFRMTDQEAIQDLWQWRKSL

Results are given in words; binding and its absence hold for the method and conditions named. Binding seen in cells or lysates may run through a third protein. These calls come from enrichment with a bait or labelling near it, and not all partners need be listed.

On to “endogenous NPM1 (nucleophosmin) (from UniProt P06748 1-294)”, for which the binding entry was “binds”.
